# In publication PMC11414392:
# Protein sequences, listed by entry. Tags and fused reporters are not part of them.
# UniProt Q01196: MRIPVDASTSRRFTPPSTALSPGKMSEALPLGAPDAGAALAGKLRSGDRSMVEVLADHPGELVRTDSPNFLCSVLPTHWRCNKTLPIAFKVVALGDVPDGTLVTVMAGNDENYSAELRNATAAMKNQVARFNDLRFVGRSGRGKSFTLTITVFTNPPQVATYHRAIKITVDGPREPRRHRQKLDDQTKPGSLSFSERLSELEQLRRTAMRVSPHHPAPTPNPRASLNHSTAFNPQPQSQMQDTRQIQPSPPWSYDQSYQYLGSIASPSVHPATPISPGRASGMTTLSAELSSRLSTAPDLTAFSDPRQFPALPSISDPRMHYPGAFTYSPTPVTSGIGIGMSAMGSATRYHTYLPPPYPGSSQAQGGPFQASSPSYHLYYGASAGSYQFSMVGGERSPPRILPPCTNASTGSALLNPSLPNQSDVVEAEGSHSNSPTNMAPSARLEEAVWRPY
# No constants are given. Whether binding was seen depends on the method and setting. In cells and extracts the contact can be indirect. Some binding calls cover weakened binding; strength is not graded here.
# B1: Mucin 13 (MUC13) (protein, UniProt Q9H3R2 19-512)
# chain: TNQGNSADAVTTTETATSGPTVAAADTTETNFPETASTTANTPSFPTATSPAPPIISTHSSSTIPTPAPPIISTHSSSTIPIPTAADSESTTNVNSLATSDIITASSPNDGLITMVPSETQSNNEMSPTTEDNQSSGPPTGTALLETSTLNSTGPSNPCQDDPCADNSLCVKLHNTSFCLCLEGYYYNSSTCKKGKVFPGKISVTVSETFDPEEKHSMAYQDLHSEITSLFKDVFGTSVYGQTVILTVSTSLSPRSEMRADDKFVNVTIVTILAETTSDNEKTVTEKINKAIRSSSSNFLNYDLTLRCDYYGCNQTADDCLNGLACDCKSDLQRPNPQSPFCVASSLKCPDACNAQHKQCLIKKSGGAPECACVPGYQEDANGNCQKCAFGYSGLDCKDKFQLILTIVGTIAGIVILSMIIALIVTARSNNKTKHIEEENLIDEDFQNLKLRSTGFTNLGAEGSVFPKVRITASRDSQMQNPYSRHSSMPRPDY
# Biological target: Runt-related transcription factor 1 (RUNX1) (human (endogenous in F3-Caco-2)) (UniProt Q01196)
# Assay: co-IP; F3 cells lysed in NP-40 buffer with PMSF; lysate pre-cleared with IgG and Protein A/G magnetic beads; 2-4 ug anti-RUNX1 or anti-MUC13 (IgG as control) overnight at 4°C; beads washed five times with lysis buffer; Western blot
binder,measurement,value
B1,binding,binds
